Here are results for one molecule from patent publication US20080063623A1 (INTEVERT INTERNATIONAL B V, published 2008).

Results are given in words; binding and its absence hold for the method and conditions named. Some binding calls cover weakened binding; strength is not graded here.

Assay [1] concerns the target T1, chicken IL-12 p35 subunit (ChIL-12 p35) (chicken).
T1 sequence: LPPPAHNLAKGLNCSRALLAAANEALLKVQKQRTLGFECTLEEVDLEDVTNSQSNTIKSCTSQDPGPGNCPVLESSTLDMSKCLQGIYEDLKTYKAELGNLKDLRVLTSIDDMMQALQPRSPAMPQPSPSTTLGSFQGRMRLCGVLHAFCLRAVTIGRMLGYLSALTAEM
In words: co-transfection of COS-7 cells; bioactivity of supernatants on chicken spleen cells.

Assay [2] has the same target. In words: co-transfection of COS-7 cells, non-denaturing Western blot of supernatants.

B1: chicken IL-12 p40 subunit (ChIL-12 p40) (ligand)
chain: QWKLRENVYVIESEWNDETPAKKVKLTCDTSDEALPVYWKKGTELKGTGKTLTTEVKEFPDAGNYTCLSAKTHEIISYSFFLITKVDSNGQMIRSILKSYKEPSKTFLKCEAKNYSGIFTCSWMTENESPSVKFTIRSLKGSQGDVTCSSPVARTDKSVTEYTAQCQKENYCPFAEEHQPTEMFLEVIDEVEYENYTSSFFIRDIIKPDPPQCQYASTNGTVTWTYPKTWSTPKSYFPLTFRVKVESTKKYKSKVYDADEQSIQIPKTGPKDKISVQARDRYYNSSWSEWSTLCR
notes: also called chicken p40; clone pND89
In the case of B1, the binding result in assay [1] and in assay [2] was “binds” throughout.
